Values of other authors in US4255433A, “(+)-(3-Methyl-4-oxo-5N-piperidinothiazolidin-2-ylidene)acetic acid esters, method of preparation and use” (Godecke Aktiengesellschaft, priority 1979, dated 1981).

Tested on: mice
Conditions: male mice; literature (Meng-Loew, Diuretika, 1974); cited from earlier work

In the case of `NS(=O)(=O)c1cc(C(=O)O)c(NCc2ccco2)cc1Cl` [Compound E, 5-(aminosulfonyl)-4-chloro-2-[(2-furanylmethyl)amino]benzoic acid], the LD50 is given as 4,600 mg/kg.
